Reference: PMC6972935
Where two headings read alike, the source gives them in different places. These are yes or no findings as the source states them, for the method shown. Some results given as binding are weak or reduced against the parent protein; the word gives no strength.

By UniProt entry, the sequences of proteins in these tests, tags left out.
UniProt P07149: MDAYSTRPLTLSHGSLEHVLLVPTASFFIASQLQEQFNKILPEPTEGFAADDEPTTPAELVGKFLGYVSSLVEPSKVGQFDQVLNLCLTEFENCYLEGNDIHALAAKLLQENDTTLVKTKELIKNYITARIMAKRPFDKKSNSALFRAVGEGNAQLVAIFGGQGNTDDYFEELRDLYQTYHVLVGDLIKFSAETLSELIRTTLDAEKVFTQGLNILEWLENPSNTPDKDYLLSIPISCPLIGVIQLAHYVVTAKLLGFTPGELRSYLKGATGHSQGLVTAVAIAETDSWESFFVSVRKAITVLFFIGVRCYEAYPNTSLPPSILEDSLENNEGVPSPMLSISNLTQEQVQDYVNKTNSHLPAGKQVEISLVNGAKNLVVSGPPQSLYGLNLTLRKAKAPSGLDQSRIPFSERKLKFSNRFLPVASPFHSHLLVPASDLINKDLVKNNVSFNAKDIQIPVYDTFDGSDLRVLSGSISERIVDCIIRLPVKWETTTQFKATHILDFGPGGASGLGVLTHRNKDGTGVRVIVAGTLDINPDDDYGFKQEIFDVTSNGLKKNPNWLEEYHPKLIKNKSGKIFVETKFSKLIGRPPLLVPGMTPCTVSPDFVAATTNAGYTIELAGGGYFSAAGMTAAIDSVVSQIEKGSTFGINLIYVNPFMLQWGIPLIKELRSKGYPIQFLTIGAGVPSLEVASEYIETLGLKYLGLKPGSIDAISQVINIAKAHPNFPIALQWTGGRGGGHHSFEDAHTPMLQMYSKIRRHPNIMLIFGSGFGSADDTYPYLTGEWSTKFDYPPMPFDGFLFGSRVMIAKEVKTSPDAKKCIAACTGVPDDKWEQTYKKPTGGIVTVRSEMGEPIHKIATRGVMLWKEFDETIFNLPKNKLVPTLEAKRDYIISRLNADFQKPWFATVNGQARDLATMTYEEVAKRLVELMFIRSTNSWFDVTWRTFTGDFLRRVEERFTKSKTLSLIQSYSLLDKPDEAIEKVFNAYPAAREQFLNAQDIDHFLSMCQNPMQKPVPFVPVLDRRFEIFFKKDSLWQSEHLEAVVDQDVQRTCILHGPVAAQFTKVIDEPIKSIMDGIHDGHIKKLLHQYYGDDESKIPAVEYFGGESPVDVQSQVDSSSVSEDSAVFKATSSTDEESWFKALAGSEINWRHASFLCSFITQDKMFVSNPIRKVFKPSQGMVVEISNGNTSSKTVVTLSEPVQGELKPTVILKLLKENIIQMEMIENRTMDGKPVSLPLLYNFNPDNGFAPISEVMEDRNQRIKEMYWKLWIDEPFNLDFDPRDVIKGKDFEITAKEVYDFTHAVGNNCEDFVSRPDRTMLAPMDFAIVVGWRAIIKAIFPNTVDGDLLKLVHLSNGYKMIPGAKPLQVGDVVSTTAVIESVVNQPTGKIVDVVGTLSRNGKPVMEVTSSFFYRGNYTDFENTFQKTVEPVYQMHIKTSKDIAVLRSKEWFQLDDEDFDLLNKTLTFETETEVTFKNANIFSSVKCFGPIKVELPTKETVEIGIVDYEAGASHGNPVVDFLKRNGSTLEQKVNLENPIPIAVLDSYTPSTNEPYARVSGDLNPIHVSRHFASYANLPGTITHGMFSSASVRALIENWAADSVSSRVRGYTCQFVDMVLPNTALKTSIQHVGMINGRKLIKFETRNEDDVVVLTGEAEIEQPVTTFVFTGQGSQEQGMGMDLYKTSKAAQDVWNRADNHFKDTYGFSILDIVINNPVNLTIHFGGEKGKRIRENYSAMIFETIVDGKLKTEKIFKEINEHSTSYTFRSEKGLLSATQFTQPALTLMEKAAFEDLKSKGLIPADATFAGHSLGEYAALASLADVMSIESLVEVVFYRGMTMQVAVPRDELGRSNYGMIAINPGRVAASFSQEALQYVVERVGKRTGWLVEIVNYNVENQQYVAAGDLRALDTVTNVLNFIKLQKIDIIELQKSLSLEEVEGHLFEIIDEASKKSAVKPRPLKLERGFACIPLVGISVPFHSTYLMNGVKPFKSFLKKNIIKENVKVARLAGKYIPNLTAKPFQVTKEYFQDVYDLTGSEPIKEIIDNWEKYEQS

B1: yeast FAS α-subunit N-terminal piece of the tripartite FAS, fas2∆(428–1887) (domain or fragment, UniProt P19097 1-427)
chain: MKPEVEQELAHILLTELLAYQFASPVRWIETQDVFLKDFNTERVVEIGPSPTLAGMAQRTLKNKYESYDAALSLHREILCYSKDAKEIYYTPDPSELAAKEEPAKEEAPAPTPAASAPAPAAAAPAPVAAAAPAAAAAEIADEPVKASLLLHVLVAHKLKKSLDSIPMSKTIKDLVGGKSTVQNEILGDLGKEFGTTPEKPEETPLEELAETFQDTFSGALGKQSSSLLSRLISSKMPGGFTITVARKYLQTRWGLPSGRQDGVLLVALSNEPAARLGSEADAKAFLDSMAQKYASIVGVDLSSAASASGAAGAGAAAGAAMIDAGALEEITKDHKVLARQQLQVLARYLKMDLDNGERKFLKEKDTVAELQAQLDYLNAELGEFFVNGVATSFSRKKARTFDSSWNWAKQSLLSLYFEIIHGVLKN

Tests used:
[1] = biological target: yeast fatty acid synthase (FAS) β-subunit, wildtype (encoded by FAS1) (S. cerevisiae) (UniProt P07149); assay: native gel or EMSA; Native-PAGE (3–12% Bis-Tris, Blue Native buffer system) of lysates of S. cerevisiae strains (for the deletion mutants also after purification), Western blot with rabbit anti-FAS antiserum; bands indicate intact FAS barrels
[2] = biological target: yeast fatty acid synthase (FAS) β-subunit, wildtype (encoded by FAS1) (S. cerevisiae) (UniProt P07149); assay: as above; remark: listed apart in the source

Row | Molecule | binding [1] | binding [2]
1 | yeast FAS α-subunit deleted in about half of the N-terminal α1-helix (amino acids K2 to H11) (from UniProt P19097 1-1887) | no binding | –
2 | yeast FAS α-subunit K2S/E8R double mutant (from UniProt P19097 1-1887) | no binding | –
3 | yeast fatty acid synthase (FAS) α-subunit, wildtype (encoded by FAS2) (from UniProt P19097 1-1887) | binds | –
4 | yeast FAS α-subunit S180A (phosphopantetheinylation-deficient) (from UniProt P19097 1-1887) | binds | –
5 | B1 | – | binds
